The values that follow come from patent EP2090664A1.

Assay [1] has as its target T1, human cystatin C (HCC) (human) (UniProt P01034).
T1 sequence: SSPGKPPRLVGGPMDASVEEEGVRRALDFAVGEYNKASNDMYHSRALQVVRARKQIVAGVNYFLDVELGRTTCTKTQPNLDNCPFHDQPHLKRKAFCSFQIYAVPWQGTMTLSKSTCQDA
Nature of the assay: ELISA, biotinylated Aβ-peptides on adsorbed HCC.

For assay [2], the target named is T1, human cystatin C (HCC) (human). Nature of the assay: summary of affinity-MS, epitope excision and ELISA results. In general terms: An ELISA detects its analyte on a solid surface through an enzyme-linked reagent.
For assay [3] the target is unchanged. In words: affinity experiments with Aβ-peptides on HCC (Figure 10 summary).
A further assay has as its target T2, Biotinyl-G5-Aβ (17-28).
T2 sequence (peptide, N-terminal biotin (Biotinyl-G5-)): GGGGGLVFFAEDVGSNK
In words: ELISA, adsorbed HCC-peptides with BiotinG5 Aβ (17-28).

No constants are given. Whether binding was seen depends on the method and setting. Some entries that bind do so weakly or less than the wild type.

B1: Biotinyl-G5-Aβ (17-28) (peptide)
peptide: GGGGGLVFFAEDVGSNK
modifications: N-terminal biotin (Biotinyl-G5-)
In the case of B1, the binding entry in assay [1], in assay [2] and in assay [3] was “binds” in each case.

B2: Biotinyl-G5-Aβ (12-40) (peptide)
peptide: GGGGGVHHQKLVFFAEDVGSNKGAIIGLMVGGVV
modifications: N-terminal biotin (Biotinyl-G5-)
B2: the binding entry in assay [1] is reported as “binds”.

B3: HCC (101-117)-peptide (peptide)
peptide: IYAVPWQGTMTLSKSTC
In the case of B3, the binding result with Biotinyl-G5-Aβ (17-28) was “binds”.
